Measurements reported in PubChem BioAssay AID1053209 (Peter MacCallum Cancer Centre, 2014).
Aim: 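Follow-up of single siRNAs that strengthen doxorubicin killing in osteosarcoma cells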 (follow-up of hits). System: mouse primary osteosarcoma cells. Reagents: single siRNA against mouse genes, 25 nM (text also states 40 nM). Time to read-out: about 120 h (48 h before drug, then 72 h with drug). Conditions: doxorubicin 100 nM (about IC30-40), added 48 h after transfection, for 72 h. Detection: 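ATP-based luminescent viability, with or without doxorubicin, relative to non-targeting control NT1, mean of two replicates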. Reading the numbers: viability with doxorubicin, vs NT1: higher = more viable cells under doxorubicin; viability ratio, doxorubicin over no drug: higher = less sensitisation to doxorubicin; viability without drug, vs NT1: higher = more viable cells without drug. Call rule: 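Active when doxorubicin viability is at most 0.7 of NT1 and drug-free viability lies between 0.7 and 1.1, class LC dox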.
The whole screen tested about 1,580 reagents; below is a part drawn at random. 207 of all reagents (13%) were called active. 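Rows are single siRNAs; four siRNAs per gene were tested, a gene counting as confirmed only when at least two agree.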 Reagents against one gene are numbered here. Reagent sequences are not shown.

gene knocked down	reagent	combined effect class	viability with doxorubicin, vs NT1	viability ratio, doxorubicin over no drug	viability without drug, vs NT1	Call
2210016L21Rik (RIKEN cDNA 2210016L21 gene)	1	normal viability with and without drug	0.95	0.95	1	inactive
2210016L21Rik (RIKEN cDNA 2210016L21 gene)	2	low viability only with doxorubicin; normal without drug	0.48	0.57	0.84	active
2210016L21Rik (RIKEN cDNA 2210016L21 gene)	3	normal viability with and without drug	0.99	0.98	1.01	inactive
2210016L21Rik (RIKEN cDNA 2210016L21 gene)	4	normal viability with and without drug	0.98	1.05	0.93	inactive
Rpl27a (ribosomal protein L27A)	1	low viability only with doxorubicin; normal without drug	0.43	0.51	0.84	active
Rpl27a (ribosomal protein L27A)	2	low viability with and without drug	0.51	0.8	0.64	inactive
Rpl27a (ribosomal protein L27A)	3	low viability with and without drug	0.32	0.52	0.62	inactive
Rpl27a (ribosomal protein L27A)	4	low viability only with doxorubicin; normal without drug	0.59	0.77	0.77	active
Dnajc8 (DnaJ heat shock protein family (Hsp40) member C8)	1	normal viability with and without drug	0.86	1.13	0.76	inactive
Dnajc8 (DnaJ heat shock protein family (Hsp40) member C8)	2	high viability only with doxorubicin	1.17	1.22	0.96	inactive
Dnajc8 (DnaJ heat shock protein family (Hsp40) member C8)	3	low viability only with doxorubicin; normal without drug	0.51	0.69	0.74	active
Dnajc8 (DnaJ heat shock protein family (Hsp40) member C8)	4	high viability only with doxorubicin	1.16	1.26	0.92	inactive
Polr2c (polymerase (RNA) II (DNA directed) polypeptide C)	1	low viability only with doxorubicin; normal without drug	0.5	0.59	0.85	active
Polr2c (polymerase (RNA) II (DNA directed) polypeptide C)	2	normal viability with and without drug	0.78	0.8	0.98	inactive
Polr2c (polymerase (RNA) II (DNA directed) polypeptide C)	3	normal viability with and without drug	0.81	0.92	0.88	inactive
Polr2c (polymerase (RNA) II (DNA directed) polypeptide C)	4	normal viability with and without drug	0.92	0.88	1.04	inactive
Rb1cc1 (RB1-inducible coiled-coil 1)	1	normal viability with and without drug	0.95	1.02	0.93	inactive
Rb1cc1 (RB1-inducible coiled-coil 1)	2	normal viability with and without drug	0.88	1	0.88	inactive
Rb1cc1 (RB1-inducible coiled-coil 1)	3	low viability only with doxorubicin; normal without drug	0.64	0.67	0.95	active
Rb1cc1 (RB1-inducible coiled-coil 1)	4	normal viability with and without drug	0.93	0.98	0.95	inactive
Rbm17 (RNA binding motif protein 17)	1	normal viability with and without drug	0.95	0.97	0.98	inactive
Rbm17 (RNA binding motif protein 17)	2	normal viability with and without drug	1	1.09	0.92	inactive
Rbm17 (RNA binding motif protein 17)	3	normal viability with and without drug	1.03	1.03	1	inactive
Rbm17 (RNA binding motif protein 17)	4	normal viability with and without drug	0.84	0.89	0.94	inactive
Usp1 (ubiquitin specific peptidase 1)	1	normal viability with and without drug	0.88	1	0.88	inactive
Usp1 (ubiquitin specific peptidase 1)	2	normal viability with and without drug	0.98	0.98	1	inactive
Usp1 (ubiquitin specific peptidase 1)	3	normal viability with and without drug	1.02	1.01	1.01	inactive
Usp1 (ubiquitin specific peptidase 1)	4	normal viability with and without drug	0.94	0.95	0.99	inactive
Asb14 (ankyrin repeat and SOCS box-containing 14)	1	normal viability with and without drug	1.02	1.09	0.94	inactive
Asb14 (ankyrin repeat and SOCS box-containing 14)	2	high viability only with doxorubicin	1.1	1.04	1.06	inactive
Asb14 (ankyrin repeat and SOCS box-containing 14)	3	low viability only with doxorubicin; normal without drug	0.7	0.8	0.88	active
Asb14 (ankyrin repeat and SOCS box-containing 14)	4	normal viability with and without drug	1.02	1.21	0.84	inactive
Pcyox1 (prenylcysteine oxidase 1)	1	normal viability with and without drug	1.07	1.09	0.98	inactive
Pcyox1 (prenylcysteine oxidase 1)	2	normal viability with and without drug	1	1.03	0.97	inactive
Pcyox1 (prenylcysteine oxidase 1)	3	normal viability with and without drug	0.86	0.99	0.87	inactive
Pcyox1 (prenylcysteine oxidase 1)	4	normal viability with and without drug	0.87	0.93	0.94	inactive
Psmc6 (proteasome (prosome, macropain) 26S subunit, ATPase, 6)	1	low viability with and without drug	0.2	0.67	0.3	inactive
Psmc6 (proteasome (prosome, macropain) 26S subunit, ATPase, 6)	2	low viability with and without drug	0.25	0.6	0.42	inactive
Psmc6 (proteasome (prosome, macropain) 26S subunit, ATPase, 6)	3	high viability only with doxorubicin	1.12	1.08	1.04	inactive
Psmc6 (proteasome (prosome, macropain) 26S subunit, ATPase, 6)	4	low viability with and without drug	0.15	0.44	0.34	inactive
